The results in this text go back to article PMC13230545.

By UniProt entry, the sequences of proteins in these tests, tags left out.
UniProt P37869: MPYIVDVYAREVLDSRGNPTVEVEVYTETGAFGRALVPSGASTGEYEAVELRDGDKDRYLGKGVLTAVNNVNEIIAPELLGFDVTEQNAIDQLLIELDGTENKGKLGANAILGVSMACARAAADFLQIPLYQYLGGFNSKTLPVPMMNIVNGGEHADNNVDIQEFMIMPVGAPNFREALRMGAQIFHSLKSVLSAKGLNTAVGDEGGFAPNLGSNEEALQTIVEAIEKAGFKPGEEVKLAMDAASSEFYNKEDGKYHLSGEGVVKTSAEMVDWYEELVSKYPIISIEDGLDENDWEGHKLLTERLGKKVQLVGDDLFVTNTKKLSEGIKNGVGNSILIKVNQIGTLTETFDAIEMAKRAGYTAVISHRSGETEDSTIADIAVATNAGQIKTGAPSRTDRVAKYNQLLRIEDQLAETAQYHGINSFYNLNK
UniProt O31774: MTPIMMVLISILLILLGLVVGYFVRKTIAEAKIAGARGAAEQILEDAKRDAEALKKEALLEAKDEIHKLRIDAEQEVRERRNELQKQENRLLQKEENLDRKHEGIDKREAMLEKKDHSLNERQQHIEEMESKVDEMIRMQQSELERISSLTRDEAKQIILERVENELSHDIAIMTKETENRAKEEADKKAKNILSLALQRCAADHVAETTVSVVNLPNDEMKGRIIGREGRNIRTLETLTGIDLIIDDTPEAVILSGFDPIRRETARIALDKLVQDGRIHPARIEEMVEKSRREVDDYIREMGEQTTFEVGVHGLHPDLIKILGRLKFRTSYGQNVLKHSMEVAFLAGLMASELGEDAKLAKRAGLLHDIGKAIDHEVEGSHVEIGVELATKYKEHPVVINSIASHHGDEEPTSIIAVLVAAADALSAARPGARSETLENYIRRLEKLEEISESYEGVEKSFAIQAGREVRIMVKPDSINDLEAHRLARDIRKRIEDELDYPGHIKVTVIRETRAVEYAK

These are yes or no findings as the source states them, for the method shown. In cells and extracts the contact can be indirect. These calls come from enrichment with a bait or labelling near it, and not all partners need be listed. Where a sequence is shown, tags or fusion partners need not be part of it.

T1: YaaT (RicT) with a C-terminal FLAG tag (B. subtilis) (UniProt P37541)
T1 sequence: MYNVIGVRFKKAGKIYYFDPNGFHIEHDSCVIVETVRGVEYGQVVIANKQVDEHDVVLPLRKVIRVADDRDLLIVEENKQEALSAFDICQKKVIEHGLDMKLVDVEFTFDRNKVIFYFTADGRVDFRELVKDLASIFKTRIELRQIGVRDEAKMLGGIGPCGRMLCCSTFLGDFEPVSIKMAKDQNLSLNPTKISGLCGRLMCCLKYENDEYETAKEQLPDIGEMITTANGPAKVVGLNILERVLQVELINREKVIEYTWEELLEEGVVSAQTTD

B1: PNPase (enzyme, UniProt P50849 1-705)
chain: MGQEKHVFTIDWAGRTLTVETGQLAKQANGAVMIRYGDTAVLSTATASKEPKPLDFFPLTVNYEERLYAVGKIPGGFIKREGRPSEKAVLASRLIDRPIRPLFADGFRNEVQVISIVMSVDQNCSSEMAAMFGSSLALSVSDIPFEGPIAGVTVGRIDDQFIINPTVDQLEKSDINLVVAGTKDAINMVEAGADEVPEEIMLEAIMFGHEEIKRLIAFQEEIVAAVGKEKSEIKLFEIDEELNEKVKALAEEDLLKAIQVHEKHAREDAINEVKNAVVAKFEDEEHDEDTIKQVKQILSKLVKNEVRRLITEEKVRPDGRGVDQIRPLSSEVGLLPRTHGSGLFTRGQTQALSVCTLGALGDVQILDGLGVEESKRFMHHYNFPQFSVGETGPMRGPGRREIGHGALGERALEPVIPSEKDFPYTVRLVSEVLESNGSTSQASICASTLAMMDAGVPIKAPVAGIAMGLVKSGEHYTVLTDIQGMEDALGDMDFKVAGTEKGVTALQMDIKIEGLSREILEEALQQAKKGRMEILNSMLATLSESRKELSRYAPKILTMTINPDKIRDVIGPSGKQINKIIEETGVKIDIEQDGTIFISSTDESGNQKAKKIIEDLVREVEVGQLYLGKVKRIEKFGAFVEIFSGKDGLVHISELALERVGKVEDVVKIGDEILVKVTEIDKQGRVNLSRKAVLREEKEKEEQQS
B2: YlbF (RicF) (protein, UniProt O34412 1-149)
chain: MYATMESVRLQSEAQQLAEMILQSETAENYRNCYKRLQEDEEAGRIIRSFIKIKEQYEDVQRFGKYHPDYREISRKMREIKRELDLNDKVADFKRAENELQSILDEVSVEIGTAVSEHVKVPTGNPYFDGLSSCGGGCGSGGSCGCKVS
B3: YmcA (RicA) (protein, UniProt O31779 1-143)
chain: MTLYSKKDIVQQARNLAKMISETEEVDFFKRAEAQINENDKVSTIVNQIKALQKQAVNLKHYEKHEALKQVEAKIDALQEELEEIPVIQEFRDSQMEVNDLLQLVAHTISNQVTNEIITSTGGDLLKGETGSKVKHSNNSCSL

This experiment deals with T1, YaaT (RicT) with a C-terminal FLAG tag (B. subtilis). As to the kind of experiment: affinity purification with mass spectrometry; lysate of the in-locus YaaT-FLAG strain (late exponential phase, OD600 ~1) on anti-FLAG M2 affinity gel, 2 h, 4 °C; 20 mM HEPES-KOH pH 7.5, 30 mM NH4Cl, 6 mM Mg-acetate, 0.5 mM TCEP, 200 µM DDM; eluted with 3x FLAG peptide; DIA-MS; three biological replicates.
For the molecule “enolase (from UniProt P37869 1-430) (enzyme)”, the binding entry is “binds”.
With “endonuclease RNase Y (from UniProt O31774 1-520) (enzyme)” the entry was “binds”.
With “RNase J (B. subtilis (endogenous in B. subtilis)) (enzyme)” the entry was “binds”; with B1, “binds”; with B2, “binds”.
In the case of B3, the binding result is listed as “binds”.
